Data as given in PubChem BioAssay AID1224827 (NIAID, 2016)
Test: 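Identify regulators of the macrophage TNF-alpha response to bacterial LPS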 (follow-up of hits). Cells: RAW264.7 G9 mouse macrophage reporter clone. Knock-down reagent: single siRNA against mouse genes, 100 nM siRNA. Duration: siRNA for 2 days, then LPS about 16 h. Treatment: bacterial lipopolysaccharide (LPS), 10 ng/ml, cells fixed after overnight (about 16 h) stimulation. Measurement: 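Imaged nuclear TNF reporter intensity, background removed, scaled per plate and to non-targeting control wells, as z-scores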. Reading the numbers: TNF reporter z-score, mean and TNF reporter z-score: higher = stronger Tnf promoter reporter signal; gene median z, three same-vendor siRNAs: higher = stronger Tnf reporter signal for the gene. Active means: 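An siRNA is called active when its mean z-score over replicates is at least +2 or at most -2; control wells get no call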.
Here is a random part of about 3,800 reagents tested. About 2,200 of all reagents (57%) were called active. 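Active means a strong reporter change in either direction; calls are per siRNA, not per gene; qiagen siRNAs gave weaker effects.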 The numbers tell different reagents against one gene apart. No sequences are given here.

target | siRNA no. | TNF reporter z-score, mean | gene median z, three same-vendor siRNAs | TNF reporter z-score, repeat 1 | TNF reporter z-score, repeat 2 | Outcome
Synj2bp (synaptojanin 2 binding protein) | 1 | -2.22 | -5.34 | -2.62 | -1.82 | active
Synj2bp (synaptojanin 2 binding protein) | 2 | -5.56 | -5.34 | -5.41 | -5.71 | active
Synj2bp (synaptojanin 2 binding protein) | 3 | -5.61 | -5.34 | -5.27 | -5.94 | active
Prrt3 (proline-rich transmembrane protein 3) | 1 | -3.55 | -3.67 | -3.43 | -3.68 | active
Prrt3 (proline-rich transmembrane protein 3) | 2 | -3.61 | -3.67 | -3.67 | -3.54 | active
Prrt3 (proline-rich transmembrane protein 3) | 3 | -6.36 | -3.67 | -6.2 | -6.53 | active
Prrt3 (proline-rich transmembrane protein 3) | 4 | 8.37 | 2.78 | 12.4 | 4.33 | active
Prrt3 (proline-rich transmembrane protein 3) | 5 | 4.63 | 2.78 | 8.02 | 1.24 | active
Prrt3 (proline-rich transmembrane protein 3) | 6 | -2.09 | 2.78 | -0.922 | -3.26 | active
Angel2 (angel homolog 2) | 1 | -0.198 | -4.47 | -1.19 | 0.796 | inactive
Angel2 (angel homolog 2) | 2 | -4.7 | -4.47 | -4.87 | -4.53 | active
Angel2 (angel homolog 2) | 3 | -4.73 | -4.47 | -5.06 | -4.41 | active
Angel2 (angel homolog 2) | 4 | 2.5 | -0.302 | 4.86 | 0.144 | active
Angel2 (angel homolog 2) | 5 | 0.55 | -0.302 | 1.85 | -0.748 | inactive
Angel2 (angel homolog 2) | 6 | -3.13 | -0.302 | -2.89 | -3.37 | active
Slc5a6 | 1 | 2 | -2.9 | 0.995 | 3 | inactive
Slc5a6 | 2 | -3.73 | -2.9 | -2.95 | -4.51 | active
Slc5a6 | 3 | -3.62 | -2.9 | -4.39 | -2.85 | active
Slc5a6 | 4 | 1.42 | 0.227 | 2.47 | 0.366 | inactive
Slc5a6 | 5 | 0.351 | 0.227 | 0.614 | 0.088 | inactive
Slc5a6 | 6 | -1.85 | 0.227 | -1.81 | -1.88 | inactive
Crisp1 (cysteine-rich secretory protein 1) | 1 | 6.01 | -0.516 | 7.43 | 4.6 | active
Crisp1 (cysteine-rich secretory protein 1) | 2 | -0.516 | -0.516 | -1.4 | 0.368 | inactive
Crisp1 (cysteine-rich secretory protein 1) | 3 | -3.63 | -0.516 | -3.14 | -4.13 | active
Crisp1 (cysteine-rich secretory protein 1) | 4 | 2.58 | 0.311 | 4.41 | 0.741 | active
Crisp1 (cysteine-rich secretory protein 1) | 5 | 1.55 | 0.311 | 3.21 | -0.119 | inactive
Crisp1 (cysteine-rich secretory protein 1) | 6 | -2.73 | 0.311 | -1.94 | -3.51 | active
Ap1g1 (adaptor protein complex AP-1, gamma 1 subunit) | 1 | -0.962 | -2.5 | -0.986 | -0.938 | inactive
Ap1g1 (adaptor protein complex AP-1, gamma 1 subunit) | 2 | -2.5 | -2.5 | -3.48 | -1.52 | active
Ap1g1 (adaptor protein complex AP-1, gamma 1 subunit) | 3 | -4.61 | -2.5 | -5.65 | -3.58 | active
Ap1g1 (adaptor protein complex AP-1, gamma 1 subunit) | 4 | 3.58 | 1.16 | 6.12 | 1.03 | active
Ap1g1 (adaptor protein complex AP-1, gamma 1 subunit) | 5 | 1.44 | 1.16 | 4.4 | -1.52 | inactive
Ap1g1 (adaptor protein complex AP-1, gamma 1 subunit) | 6 | -0.741 | 1.16 | 1.29 | -2.77 | inactive
Or4f7 (olfactory receptor family 4 subfamily F member 7) | 1 | -0.73 | -1.65 | 0.364 | -1.83 | inactive
Or4f7 (olfactory receptor family 4 subfamily F member 7) | 2 | -0.969 | -1.65 | -0.454 | -1.48 | inactive
Or4f7 (olfactory receptor family 4 subfamily F member 7) | 3 | -4.97 | -1.65 | -4.53 | -5.42 | active
Or4f7 (olfactory receptor family 4 subfamily F member 7) | 4 | 3.11 | 1.25 | 4.76 | 1.46 | active
Or4f7 (olfactory receptor family 4 subfamily F member 7) | 5 | 2.73 | 1.25 | 4.42 | 1.03 | active
Or4f7 (olfactory receptor family 4 subfamily F member 7) | 6 | -2.93 | 1.25 | -2.87 | -3 | active
Birc2 (baculoviral IAP repeat-containing 2) | 1 | 6.09 | 4.4 | 3.98 | 8.19 | active
Birc2 (baculoviral IAP repeat-containing 2) | 2 | 5.22 | 4.4 | 4.81 | 5.62 | active
Birc2 (baculoviral IAP repeat-containing 2) | 3 | -2.66 | 4.4 | -2.7 | -2.61 | active
Birc2 (baculoviral IAP repeat-containing 2) | 4 | 2.9 | 0.814 | 4.23 | 1.58 | active
Birc2 (baculoviral IAP repeat-containing 2) | 5 | 0.814 | 0.814 | 1.44 | 0.187 | inactive
Birc2 (baculoviral IAP repeat-containing 2) | 6 | -1.93 | 0.814 | -1.67 | -2.19 | inactive
Ear2 (eosinophil-associated, ribonuclease A family, member 2) | 1 | 4.7 | -0.889 | 7.78 | 1.63 | active
Ear2 (eosinophil-associated, ribonuclease A family, member 2) | 2 | -1.24 | -0.889 | -0.735 | -1.75 | inactive
Ear2 (eosinophil-associated, ribonuclease A family, member 2) | 3 | -1.44 | -0.889 | -1.04 | -1.84 | inactive

Next part; the last 3 above are carried over.
target | siRNA no. | TNF reporter z-score, mean | gene median z, three same-vendor siRNAs | TNF reporter z-score, repeat 1 | TNF reporter z-score, repeat 2 | Outcome
Ear2 (eosinophil-associated, ribonuclease A family, member 2) | 1 | 4.7 | -0.889 | 7.78 | 1.63 | active
Ear2 (eosinophil-associated, ribonuclease A family, member 2) | 2 | -1.24 | -0.889 | -0.735 | -1.75 | inactive
Ear2 (eosinophil-associated, ribonuclease A family, member 2) | 3 | -1.44 | -0.889 | -1.04 | -1.84 | inactive
Or2y1g (olfactory receptor family 2 subfamily Y member 1G) | 1 | 3.51 | -0.786 | 1.97 | 5.05 | active
Or2y1g (olfactory receptor family 2 subfamily Y member 1G) | 2 | -1.97 | -0.786 | -0.294 | -3.65 | inactive
Or2y1g (olfactory receptor family 2 subfamily Y member 1G) | 3 | -2.07 | -0.786 | -1.28 | -2.87 | active
Or2y1g (olfactory receptor family 2 subfamily Y member 1G) | 4 | -0.505 | -1.09 | -0.322 | -0.687 | inactive
Or2y1g (olfactory receptor family 2 subfamily Y member 1G) | 5 | -0.53 | -1.09 | 0.44 | -1.5 | inactive
Or2y1g (olfactory receptor family 2 subfamily Y member 1G) | 6 | -2.51 | -1.09 | -1.9 | -3.12 | active
Atp1b1 (ATPase, Na+/K+ transporting, beta 1 polypeptide) | 1 | -2.05 | -2.99 | -2.79 | -1.3 | active
Atp1b1 (ATPase, Na+/K+ transporting, beta 1 polypeptide) | 2 | -2.1 | -2.99 | -3.19 | -1 | active
Atp1b1 (ATPase, Na+/K+ transporting, beta 1 polypeptide) | 3 | -4.81 | -2.99 | -5.32 | -4.3 | active
Atp1b1 (ATPase, Na+/K+ transporting, beta 1 polypeptide) | 4 | 0.661 | 0.0134 | 0.937 | 0.384 | inactive
Atp1b1 (ATPase, Na+/K+ transporting, beta 1 polypeptide) | 5 | 0.193 | 0.0134 | 0.744 | -0.357 | inactive
Atp1b1 (ATPase, Na+/K+ transporting, beta 1 polypeptide) | 6 | -1.81 | 0.0134 | -1.38 | -2.25 | inactive
Il17rd (interleukin 17 receptor D) | 1 | -1.66 | -2.23 | -2.51 | -0.806 | inactive
Il17rd (interleukin 17 receptor D) | 2 | -1.84 | -2.23 | -1.95 | -1.74 | inactive
Il17rd (interleukin 17 receptor D) | 3 | -5.99 | -2.23 | -5.3 | -6.69 | active
Il17rd (interleukin 17 receptor D) | 4 | 0.936 | -1.32 | 2.4 | -0.526 | inactive
Il17rd (interleukin 17 receptor D) | 5 | -1.21 | -1.32 | -0.298 | -2.12 | inactive
Il17rd (interleukin 17 receptor D) | 6 | -3.23 | -1.32 | -3.22 | -3.23 | active
Cpq (carboxypeptidase Q) | 1 | 8.13 | 1.78 | 5.97 | 10.3 | active
Cpq (carboxypeptidase Q) | 2 | 1.78 | 1.78 | 1.33 | 2.23 | inactive
Cpq (carboxypeptidase Q) | 3 | -2.93 | 1.78 | -3.11 | -2.76 | active
Cpq (carboxypeptidase Q) | 4 | 4.49 | 2.07 | 7.75 | 1.24 | active
Cpq (carboxypeptidase Q) | 5 | 3.59 | 2.07 | 6.91 | 0.276 | active
Cpq (carboxypeptidase Q) | 6 | 1.61 | 2.07 | 2.89 | 0.325 | inactive
Rnf126 (ring finger protein 126) | 1 | -0.378 | -2.95 | -0.594 | -0.162 | inactive
Rnf126 (ring finger protein 126) | 2 | -3.04 | -2.95 | -1.89 | -4.2 | active
Rnf126 (ring finger protein 126) | 3 | -4.57 | -2.95 | -4.02 | -5.12 | active
Rnf126 (ring finger protein 126) | 4 | 2.37 | -0.658 | 4.34 | 0.408 | active
Rnf126 (ring finger protein 126) | 5 | -0.658 | -0.658 | -0.827 | -0.49 | inactive
Rnf126 (ring finger protein 126) | 6 | -2.42 | -0.658 | -2.44 | -2.41 | active
